Paper PMC4064043
No constants are given. Whether binding was seen depends on the method and setting. Binding can be weak; no strength is given. For some assays here: Binding seen in cells or lysates may run through a third protein.

Sequences of proteins named here, by UniProt entry; tags and fusion partners are left off. A change or cut given only in a name is not applied to a line headed by its entry.
UniProt Q0JA29: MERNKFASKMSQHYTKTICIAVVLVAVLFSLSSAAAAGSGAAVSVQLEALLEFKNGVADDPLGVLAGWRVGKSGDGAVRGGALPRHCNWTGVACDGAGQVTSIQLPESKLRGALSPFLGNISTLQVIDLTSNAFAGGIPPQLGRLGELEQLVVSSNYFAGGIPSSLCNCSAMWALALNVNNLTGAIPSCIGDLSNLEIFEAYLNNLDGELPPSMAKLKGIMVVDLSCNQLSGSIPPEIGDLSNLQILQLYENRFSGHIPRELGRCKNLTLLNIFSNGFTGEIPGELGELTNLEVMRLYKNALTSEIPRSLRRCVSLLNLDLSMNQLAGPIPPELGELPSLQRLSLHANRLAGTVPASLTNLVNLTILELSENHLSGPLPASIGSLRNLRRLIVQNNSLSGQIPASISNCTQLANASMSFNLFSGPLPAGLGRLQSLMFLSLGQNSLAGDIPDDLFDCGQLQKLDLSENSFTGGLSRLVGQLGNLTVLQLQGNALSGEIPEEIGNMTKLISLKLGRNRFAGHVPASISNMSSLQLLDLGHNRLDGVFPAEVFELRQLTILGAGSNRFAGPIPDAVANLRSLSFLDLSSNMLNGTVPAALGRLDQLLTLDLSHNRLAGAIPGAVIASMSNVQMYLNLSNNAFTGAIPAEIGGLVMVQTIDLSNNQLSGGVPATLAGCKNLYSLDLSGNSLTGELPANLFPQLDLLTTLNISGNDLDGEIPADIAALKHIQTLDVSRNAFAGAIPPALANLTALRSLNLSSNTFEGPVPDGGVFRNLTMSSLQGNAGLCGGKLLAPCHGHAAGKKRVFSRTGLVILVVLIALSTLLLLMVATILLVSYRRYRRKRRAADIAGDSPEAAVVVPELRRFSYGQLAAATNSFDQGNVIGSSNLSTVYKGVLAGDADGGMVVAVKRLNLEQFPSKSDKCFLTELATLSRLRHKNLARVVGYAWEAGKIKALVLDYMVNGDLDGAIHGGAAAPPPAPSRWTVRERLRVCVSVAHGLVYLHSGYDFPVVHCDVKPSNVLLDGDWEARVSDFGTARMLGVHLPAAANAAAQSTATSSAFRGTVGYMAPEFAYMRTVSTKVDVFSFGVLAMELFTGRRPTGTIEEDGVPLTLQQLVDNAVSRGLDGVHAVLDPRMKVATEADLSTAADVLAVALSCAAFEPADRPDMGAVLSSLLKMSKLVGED

Assays:
[1] = target: intracellular domain of OsFLS2 (rice) (UniProt Q0JA29); test: two-hybrid; Matchmaker LexA two-hybrid system (Clontech); yeast pEGY48/p8op-lacZ co-transformed with BD (LexA) and AD (B42, HA) vectors; blue colour indicates interaction
Myc–XA21 (rice) = test: co-IP; Myc–XA21 complex immunoprecipitated with agarose-conjugated anti-Myc antibody from leaves of cMyc–Xa21 rice plants, no treatment; Kitaake leaves as negative control; blots with anti-Myc and anti-OsSERK2

Molecule | binding [1] | binding (Myc–XA21 (rice))
intracellular domain of OsSERK2 (from UniProt Q7XV05) (domain or fragment) | binds | 
OsSERK2 (rice somatic embryogenesis receptor kinase 2) (receptor, UniProt Q7XV05 32-628) NTEGDALYSLRQSLKDANNVLQSWDPTLVNPCTWFHVTCNPDNSVIRVDLGNAQLSGALVPQLGQLKNLQYLELYSNNISGTIPNELGNLTNLVSLDLYLNNFTGFIPETLGQLYKLRFLRLNNNSLSGSIPKSLTNITTLQVLDLSNNNLSGEVPSTGSFSLFTPISFANNKDLCGPGTTKPCPGAPPFSPPPPFNPPTPTVSQGDSKTGAIAGGVAAAAALLFAVPAIGFAWWRRRKPEEHFFDVPAEEDPEVHLGQLKRFSLRELQVATDNFSNKNILGRGGFGKVYKGRLADGSLVAVKRLKEERTPGGELQFQTEVEMISMAVHRNLLRLRGFCMTPTERLLVYPYMANGSVASRLRERQPNDPPLEWQTRTRIALGSARGLSYLHDHCDPKIIHRDVKAANILLDEDFEAVVGDFGLAKLMDYKDTHVTTAVRGTIGHIAPEYLSTGKSSEKTDVFGYGIMLLELITGQRAFDLARLANDDDVMLLDWVKGLLKEKKVEMLVDPDLQSGFVEHEVESLIQVALLCTQGSPMDRPKMSEVVRMLEGDGLAERWEEWQKVEVVRQEAELAPRHNDWIVDSTYNLRAMELSGPR |  | binds
